Assay results reported in patent US11744863B2, “Process for preparing a pooled human platelet lysate, pooled human platelet lysate and its use for treating neurological disorders” (priority 2017, dated 2023).
At least one structure is not confirmed: it was looked up by name or label, or the drawing left a doubt.

How the values were obtained:
[1] = test system: LUHMES cells; assay: Flow-cytometry assay (propidium iodide) of viability; assay type: cell-based; conditions: erastin alone, no lysate
[2] = test system: LUHMES cells; assay: Resazurin assay of viability; assay type: cell-based, human; conditions: erastin alone, two doses tested

CCOc1ccccc1-n1c(C(C)N2CCN(C(=O)COc3ccc(Cl)cc3)CC2)nc2ccccc2c1=O (centres unmarked) [Erastin, erastin]
killing of control cells [1]: killed efficiently the control cells | killing of LUHMES cells [2]: killed efficiently the LUHMES cells
